In patent EP4818204A1 (Nanjing Leads Biolabs Co., Ltd., dated 2026) one finds binding data, which are given here for one molecule.

Protein sequences, listed by entry. Tags and fused reporters are not part of them. Lines headed by an entry give the natural chain unless they say otherwise; changes in a name come on top.
UniProt P03971: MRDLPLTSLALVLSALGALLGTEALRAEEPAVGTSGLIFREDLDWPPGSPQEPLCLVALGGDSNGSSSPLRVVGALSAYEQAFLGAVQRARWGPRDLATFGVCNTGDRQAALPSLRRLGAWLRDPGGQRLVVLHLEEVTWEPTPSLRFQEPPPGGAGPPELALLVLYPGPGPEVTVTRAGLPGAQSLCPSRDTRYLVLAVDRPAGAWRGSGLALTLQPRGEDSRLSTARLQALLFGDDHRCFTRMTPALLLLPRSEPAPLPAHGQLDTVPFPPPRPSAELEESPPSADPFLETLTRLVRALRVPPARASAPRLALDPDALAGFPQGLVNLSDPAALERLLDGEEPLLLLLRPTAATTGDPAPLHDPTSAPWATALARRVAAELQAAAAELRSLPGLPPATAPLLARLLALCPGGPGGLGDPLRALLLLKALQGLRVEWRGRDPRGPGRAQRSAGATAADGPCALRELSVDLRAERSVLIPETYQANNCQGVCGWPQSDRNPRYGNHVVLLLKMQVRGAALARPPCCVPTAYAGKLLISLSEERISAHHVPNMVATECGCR
UniProt O14793: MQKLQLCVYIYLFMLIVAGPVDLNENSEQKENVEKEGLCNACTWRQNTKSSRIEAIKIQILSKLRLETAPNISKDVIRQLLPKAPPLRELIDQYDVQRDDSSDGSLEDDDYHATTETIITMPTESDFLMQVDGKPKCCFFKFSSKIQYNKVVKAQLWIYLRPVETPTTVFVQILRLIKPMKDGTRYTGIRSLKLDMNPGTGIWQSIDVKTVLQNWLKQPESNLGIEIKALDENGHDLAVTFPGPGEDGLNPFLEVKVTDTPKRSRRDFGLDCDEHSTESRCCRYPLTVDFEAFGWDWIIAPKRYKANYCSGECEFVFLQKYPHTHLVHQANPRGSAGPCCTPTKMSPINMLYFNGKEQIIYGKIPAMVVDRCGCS

Experiment [1] deals with human AMH protein (human) (UniProt P03971). The experiment can be described thus: ELISA, coated protein. (An ELISA detects its analyte on a solid surface through an enzyme-linked reagent.)
For experiment [2], the target named is human GDF8 protein (human) (UniProt O14793). The experiment can be described thus: ELISA, coated protein.

These are yes or no findings as the source states them, for the method shown.

B1: Hu21H6D2 (antibody, human IgG1, kappa, V domains shown)
VH: QVQLVQSGAEVKKPGASVKVSCKASGYTFTGYIMNWVRQAPGQRLEWMGDIDPYYGDAKYNQKFKGKVTITVDKSASTAYMELSSLRSEDTAVYYCARRDYDHGSFAYWGQGTLVTVSS
VL: EIVLTQSPDFQSVTPKEKVTITCSASSSVNYMHWYQQKPDQSPKRLIYDTSKLASGVPSRFSGSGSGTDYTLTINSLEAEDAATYYCQQWSSNPPTFGQGTKLEIKR
notes: Humanized form of murine 21H6D2; human IgG1 constant region with L234A, L235A, G237A and kappa light chain constant region; also called hu21H6D2-IgG1-mut(L234A,L235A,G237A)
Consider B1, for which the binding result in experiment [1] and in experiment [2] was “no binding (tested: 4 µg/mL)” throughout.
